# Source: patent US7598260B2, “CDK-inhibitory pyrimidines, their production and use as pharmaceutical agents” (Bayer Schering Pharma Aktiengesellschaft, priority 2001, dated 2009)
# Tested on: MCF-7 cells
# Test: Proliferation assay, crystal violet staining (cell test), MCF-7
# Type: cell-based
# Details: Homo sapiens, MCF7, comparison with known compounds
# Method: Cultivated human tumor cells (as indicated) are flattened out at a density of 5000 cells/measuring point in a 96-hole multititer plate in 200 μl of the corresponding growth medium. After 24 hours, the cells of one plate (zero-point plate) are colored with crystal violet (see below), while the medium of the other plates is replaced by fresh culture medium (200 μl), to which the test substances are added at various concentrations (0 μm, as well as in the range of 0.01-30 μm; the final concentration of the solvent dimethyl sulfoxide is 0.5%). The cells are incubated for 4 days in the presence of test substances. The cell proliferation is determined by coloring the cells with crystal violet: the cells are fixed by adding 20 μl/measuring point of a 11% glutaric aldehyde solution for 15 minutes at room temperature. After three washing cycles of the fixed cells with water, the plates are dried at room temperature. The cells are colored by adding 100 μl/measuring point of a 0.1% crystal violet solution (pH is set at 3 by adding acetic acid). […] The extinction is determined by photometry at a wavelength of 595 nm. The change of cell growth, in percent, is calculated by standardization of the measured values to the extinction values of the zero-point plate (=0%) and the extinction of the untreated (0 μm) cells (=100%).
compound,measurement,value
"CCC(CO)Nc1nc(NCc2ccccc2)c2ncn(C(C)C)c2n1 (stereo not shown) [Roscovitine, reference compound]",IC50,8 µM
